Data reported in the supplement of paper PMC6411743.
± gives the standard deviation of the averaged measurements. The list shows a part of the results, in another mix than the full data.

Legend:
Assay in all cases: NP40-soluble protein abundance relative to vehicle (solubility fold change) (ratio); higher = more soluble protein in presence of ATP
ALG3 = target: T1, ALG3 (UniProt Q92685)
T1 sequence (whole entry): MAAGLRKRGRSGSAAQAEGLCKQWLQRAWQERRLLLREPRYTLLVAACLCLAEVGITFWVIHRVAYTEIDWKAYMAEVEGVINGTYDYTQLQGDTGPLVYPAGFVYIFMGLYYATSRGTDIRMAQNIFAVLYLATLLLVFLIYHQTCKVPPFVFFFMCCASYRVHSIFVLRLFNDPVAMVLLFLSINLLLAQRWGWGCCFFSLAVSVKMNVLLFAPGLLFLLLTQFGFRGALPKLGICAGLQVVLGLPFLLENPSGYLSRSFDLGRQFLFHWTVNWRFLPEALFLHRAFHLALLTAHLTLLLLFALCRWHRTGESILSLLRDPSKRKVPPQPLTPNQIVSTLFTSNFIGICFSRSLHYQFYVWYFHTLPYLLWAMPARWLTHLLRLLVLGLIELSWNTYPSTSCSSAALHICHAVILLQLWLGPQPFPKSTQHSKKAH
How it was run: (§1)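 Data come from three independent experiments in which Dounce-homogenised Jurkat crude lysate was treated at eight concentrations from 0.1 to 10 mM. Treatment ran 10 min at room temperature and then 3 min at 37 °C, after which 0.8% NP40 and benzonase were added for 60 min at 4 °C before ultracentrifugation. The supernatant underwent TMT labelling and LC-MS/MS, and vsn-normalised intensities were expressed as fold change against the detergent-processed vehicle in each replicate.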

COG1 = target: T2, COG1 (UniProt Q8WTW3)
T2 sequence (whole entry): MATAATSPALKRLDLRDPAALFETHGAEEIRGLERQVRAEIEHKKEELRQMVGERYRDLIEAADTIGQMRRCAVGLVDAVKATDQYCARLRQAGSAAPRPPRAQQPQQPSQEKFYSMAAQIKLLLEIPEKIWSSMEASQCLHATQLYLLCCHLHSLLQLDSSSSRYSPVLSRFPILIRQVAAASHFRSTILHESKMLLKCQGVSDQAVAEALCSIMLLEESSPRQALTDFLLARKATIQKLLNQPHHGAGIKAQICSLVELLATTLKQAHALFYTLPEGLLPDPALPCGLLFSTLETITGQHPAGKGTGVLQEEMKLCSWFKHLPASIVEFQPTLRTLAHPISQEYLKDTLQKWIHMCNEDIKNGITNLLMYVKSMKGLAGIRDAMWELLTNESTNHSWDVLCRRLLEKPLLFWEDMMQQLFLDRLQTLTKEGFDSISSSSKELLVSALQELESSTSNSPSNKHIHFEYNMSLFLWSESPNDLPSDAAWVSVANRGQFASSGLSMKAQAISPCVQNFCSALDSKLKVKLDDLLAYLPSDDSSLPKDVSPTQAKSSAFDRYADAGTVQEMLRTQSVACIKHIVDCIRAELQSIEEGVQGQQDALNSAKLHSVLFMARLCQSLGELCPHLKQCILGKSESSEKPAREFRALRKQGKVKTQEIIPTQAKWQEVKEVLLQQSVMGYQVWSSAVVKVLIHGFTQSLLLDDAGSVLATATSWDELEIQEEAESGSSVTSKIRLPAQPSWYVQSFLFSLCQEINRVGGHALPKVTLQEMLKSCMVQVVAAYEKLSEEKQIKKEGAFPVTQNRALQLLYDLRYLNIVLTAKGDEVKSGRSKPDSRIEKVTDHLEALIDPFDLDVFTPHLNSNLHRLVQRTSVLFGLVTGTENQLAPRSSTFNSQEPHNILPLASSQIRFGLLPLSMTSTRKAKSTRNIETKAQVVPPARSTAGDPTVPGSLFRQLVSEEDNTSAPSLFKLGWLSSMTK
How it was run: as §1

FAM3C = target: T3, FAM3C (UniProt Q92520)
T3 sequence (whole entry): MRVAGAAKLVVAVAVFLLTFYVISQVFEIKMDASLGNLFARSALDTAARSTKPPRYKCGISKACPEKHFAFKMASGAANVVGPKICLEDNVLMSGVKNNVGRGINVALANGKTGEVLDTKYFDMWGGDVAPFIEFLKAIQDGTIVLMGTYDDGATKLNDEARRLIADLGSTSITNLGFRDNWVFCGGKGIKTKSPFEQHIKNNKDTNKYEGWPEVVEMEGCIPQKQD
How it was run: as §1

JADE3 = target: T4, JADE3 (UniProt Q92613)
T4 sequence (whole entry): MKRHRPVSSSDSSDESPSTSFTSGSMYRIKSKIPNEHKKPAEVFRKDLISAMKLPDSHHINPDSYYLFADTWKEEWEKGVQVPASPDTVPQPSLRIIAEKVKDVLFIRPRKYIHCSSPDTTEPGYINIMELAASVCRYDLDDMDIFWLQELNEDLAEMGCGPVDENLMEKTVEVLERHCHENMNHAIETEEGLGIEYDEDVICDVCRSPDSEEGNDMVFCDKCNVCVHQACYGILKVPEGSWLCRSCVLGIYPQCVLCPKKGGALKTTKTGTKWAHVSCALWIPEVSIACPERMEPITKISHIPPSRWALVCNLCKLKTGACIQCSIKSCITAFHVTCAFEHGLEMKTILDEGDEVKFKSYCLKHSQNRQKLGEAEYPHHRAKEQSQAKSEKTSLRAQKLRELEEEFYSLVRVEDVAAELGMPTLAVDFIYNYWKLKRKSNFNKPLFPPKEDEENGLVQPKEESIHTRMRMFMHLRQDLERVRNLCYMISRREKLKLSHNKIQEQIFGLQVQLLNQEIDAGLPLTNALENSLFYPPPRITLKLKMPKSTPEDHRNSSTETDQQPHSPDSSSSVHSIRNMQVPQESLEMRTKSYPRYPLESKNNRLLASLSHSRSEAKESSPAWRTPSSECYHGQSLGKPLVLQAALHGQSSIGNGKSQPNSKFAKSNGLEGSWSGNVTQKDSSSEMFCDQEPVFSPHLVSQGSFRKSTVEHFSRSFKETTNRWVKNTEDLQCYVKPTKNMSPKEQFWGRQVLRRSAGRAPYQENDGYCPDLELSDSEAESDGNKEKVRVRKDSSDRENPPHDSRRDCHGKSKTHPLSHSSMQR
How it was run: as §1

NSMCE1 = target: T5, NSMCE1 (UniProt Q8WV22)
T5 sequence (whole entry): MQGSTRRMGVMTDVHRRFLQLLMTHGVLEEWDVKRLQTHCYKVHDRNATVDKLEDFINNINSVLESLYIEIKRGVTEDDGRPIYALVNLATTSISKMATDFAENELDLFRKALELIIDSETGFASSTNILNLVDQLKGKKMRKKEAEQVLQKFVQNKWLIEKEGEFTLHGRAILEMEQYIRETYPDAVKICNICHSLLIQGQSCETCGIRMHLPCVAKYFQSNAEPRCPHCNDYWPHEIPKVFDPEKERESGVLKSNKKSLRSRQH
How it was run: as §1

NT5C3B = target: T6, NT5C3B (UniProt Q969T7)
T6 sequence (whole entry): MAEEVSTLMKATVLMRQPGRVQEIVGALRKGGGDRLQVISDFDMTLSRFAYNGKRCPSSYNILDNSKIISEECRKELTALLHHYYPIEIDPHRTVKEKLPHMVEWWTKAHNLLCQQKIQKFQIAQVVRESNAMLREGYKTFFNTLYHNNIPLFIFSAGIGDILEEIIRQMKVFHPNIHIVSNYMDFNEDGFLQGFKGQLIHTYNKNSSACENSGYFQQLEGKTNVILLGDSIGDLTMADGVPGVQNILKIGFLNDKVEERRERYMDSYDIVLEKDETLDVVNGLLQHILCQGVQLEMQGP
How it was run: as §1

`Nc1ncnc2c1ncn2[C@@H]1O[C@H](COP(=O)(O)OP(=O)(O)OP(=O)(O)O)[C@@H](O)[C@H]1O` [adenosine triphosphate] showed an NP40-soluble protein abundance (ALG3; concentration: 1mM) of 1.23 ± 0.24, an NP40-soluble protein abundance (ALG3; concentration: 2mM) of 1 ± 0.12 and an NP40-soluble protein abundance (ALG3; concentration: 4mM) of 0.965 ± 0.061. The NP40-soluble protein abundance (ALG3; concentration: 6mM) was 0.902 ± 0.12, the NP40-soluble protein abundance (ALG3; concentration: 8mM) was 0.865 ± 0.04 and the NP40-soluble protein abundance (ALG3; concentration: 10mM) was 0.932 ± 0.019. It also gave an NP40-soluble protein abundance (COG1; concentration: 1mM) of 0.973 ± 0.05, an NP40-soluble protein abundance (COG1; concentration: 2mM) of 0.9604 ± 0.0027 and an NP40-soluble protein abundance (COG1; concentration: 4mM) of 0.952 ± 0.062. It also gave an NP40-soluble protein abundance (COG1; concentration: 6mM) of 0.897 ± 0.07, an NP40-soluble protein abundance (COG1; concentration: 8mM) of 0.906 ± 0.055 and an NP40-soluble protein abundance (COG1; concentration: 10mM) of 0.93 ± 0.043. For the same compound, the NP40-soluble protein abundance (FAM3C; concentration: 1mM) was 0.918 ± 0.068, the NP40-soluble protein abundance (FAM3C; concentration: 2mM) was 0.972 ± 0.011 and the NP40-soluble protein abundance (FAM3C; concentration: 4mM) was 0.947 ± 0.02. The NP40-soluble protein abundance (FAM3C; concentration: 6mM) was 0.974 ± 0.011, the NP40-soluble protein abundance (FAM3C; concentration: 8mM) was 0.922 ± 0.044 and the NP40-soluble protein abundance (FAM3C; concentration: 10mM) was 0.903 ± 0.041. The NP40-soluble protein abundance (JADE3; concentration: 1mM) was 1.17 ± 0.032, the NP40-soluble protein abundance (JADE3; concentration: 2mM) was 1.19 ± 0.076 and the NP40-soluble protein abundance (JADE3; concentration: 4mM) was 1.26 ± 0.055. It also gave an NP40-soluble protein abundance (JADE3; concentration: 6mM) of 1.27 ± 0.04, an NP40-soluble protein abundance (JADE3; concentration: 8mM) of 1.29 ± 0.086 and an NP40-soluble protein abundance (JADE3; concentration: 10mM) of 1.28 ± 0.032. The NP40-soluble protein abundance (NSMCE1; concentration: 1mM) was 1.02 ± 0.037, the NP40-soluble protein abundance (NSMCE1; concentration: 2mM) was 1.04 ± 0.025 and the NP40-soluble protein abundance (NSMCE1; concentration: 4mM) was 1.03 ± 0.04. It also gave an NP40-soluble protein abundance (NSMCE1; concentration: 6mM) of 1.05 ± 0.032, an NP40-soluble protein abundance (NSMCE1; concentration: 8mM) of 1.02 ± 0.061 and an NP40-soluble protein abundance (NSMCE1; concentration: 10mM) of 0.984 ± 0.03. For the same compound, the NP40-soluble protein abundance (NT5C3B; concentration: 1mM) was 0.952 ± 0.013, the NP40-soluble protein abundance (NT5C3B; concentration: 2mM) was 0.959 ± 0.015 and the NP40-soluble protein abundance (NT5C3B; concentration: 4mM) was 0.97 ± 0.028.
